For one substance, binding results are on record in PMC5446404.

The chains behind the UniProt entries cited, without tags or fusion partners. Where a name states a change or a piece, a line headed by the entry shows the natural chain unless it says otherwise.
UniProt O75460: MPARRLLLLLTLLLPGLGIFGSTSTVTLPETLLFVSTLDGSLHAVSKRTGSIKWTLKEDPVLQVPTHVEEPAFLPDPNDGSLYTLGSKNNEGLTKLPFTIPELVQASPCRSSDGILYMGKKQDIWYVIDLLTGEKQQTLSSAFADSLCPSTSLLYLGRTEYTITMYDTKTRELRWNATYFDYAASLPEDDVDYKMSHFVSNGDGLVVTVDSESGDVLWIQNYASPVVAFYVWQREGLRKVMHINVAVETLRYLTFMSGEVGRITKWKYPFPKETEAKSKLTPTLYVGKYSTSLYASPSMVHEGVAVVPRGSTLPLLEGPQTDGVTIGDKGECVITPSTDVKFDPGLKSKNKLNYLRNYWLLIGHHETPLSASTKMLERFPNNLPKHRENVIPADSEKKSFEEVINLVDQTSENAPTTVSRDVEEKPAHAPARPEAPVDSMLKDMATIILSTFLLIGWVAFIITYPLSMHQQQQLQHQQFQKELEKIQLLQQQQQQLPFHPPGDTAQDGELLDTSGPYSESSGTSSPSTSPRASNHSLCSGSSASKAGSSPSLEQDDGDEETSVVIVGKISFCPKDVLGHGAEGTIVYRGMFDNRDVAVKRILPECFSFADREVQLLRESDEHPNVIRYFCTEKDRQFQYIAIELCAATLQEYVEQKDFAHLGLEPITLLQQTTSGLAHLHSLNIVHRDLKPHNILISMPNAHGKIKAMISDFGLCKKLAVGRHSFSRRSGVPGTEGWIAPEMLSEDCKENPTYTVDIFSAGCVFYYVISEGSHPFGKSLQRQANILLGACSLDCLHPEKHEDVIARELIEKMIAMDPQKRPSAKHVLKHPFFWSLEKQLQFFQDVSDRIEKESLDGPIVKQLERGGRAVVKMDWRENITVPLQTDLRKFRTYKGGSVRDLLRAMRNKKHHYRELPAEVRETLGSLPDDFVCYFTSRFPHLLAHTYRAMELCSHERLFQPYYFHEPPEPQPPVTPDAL

These are yes or no findings as the source states them, for the method shown. Sequences can lack the tags named with a protein.

The target in this test is T1, recombinant human fortilin (Strep-tag II), biotinylated (human) (UniProt P13693).
T1 sequence (chain, biotinylated (sites not stated)): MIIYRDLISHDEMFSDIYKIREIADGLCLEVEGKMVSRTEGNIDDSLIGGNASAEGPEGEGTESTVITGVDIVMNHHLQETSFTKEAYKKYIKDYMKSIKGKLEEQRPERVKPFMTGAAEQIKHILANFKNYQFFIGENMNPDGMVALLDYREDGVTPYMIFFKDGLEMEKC
Briefly: BLI; BLItz (ForteBio); biotinylated fortilin immobilised on streptavidin-coated biosensors (25 μg/mL, 600 s), buffer exchange in PBS; analyte at various concentrations for 180 s, dissociation in PBS for 300 s; three independent experiments; both purified.

For the substance “GST-IRE1α-L (aa 1-70) (from UniProt O75460) (domain or fragment)”, the binding result is reported as “no binding”.
